Results as given in US7148193B2, “Compounds that bind to growth hormone receptor” (Antyra, Inc., priority 1997, dated 2006).
Read-outs that look alike come from different tables or passages of the source. For at least one compound, name, drawing or mass did not settle the structure. Some entries share one result that the patent states for a list of compounds. Where a SMILES comes first, the peptide text is derived from it. Bridges are numbered along the chain shown (N, C = ends).

Legend:
rGHBP [1] = target: T1, rGHBP (Rattus norvegicus, UniProt P16310); assay: Time-resolved fluorometric detection (TRFD) of specific bLigand binding to rGHBP and its competition
T1 construct: 1–48 of GHBP; The 3′ oligo used for this reaction encoded the mutation L43R (CTG→AGA); The second PCR reaction amplified the DNA encoding amino acids 38–260; 6xHis; made in house
T1 sequence (P16310 19-278 isoform P16310-2): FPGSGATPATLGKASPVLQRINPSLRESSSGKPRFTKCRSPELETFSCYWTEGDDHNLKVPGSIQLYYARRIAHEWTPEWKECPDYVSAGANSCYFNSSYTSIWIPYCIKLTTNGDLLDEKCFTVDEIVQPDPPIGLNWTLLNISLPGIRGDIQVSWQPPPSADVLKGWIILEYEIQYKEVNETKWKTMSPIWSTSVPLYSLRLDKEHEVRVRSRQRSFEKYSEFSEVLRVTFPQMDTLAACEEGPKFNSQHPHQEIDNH
Experimental: For this invention, saEu forms a ternary complex with bP and rGHBP (i.e., the rGHBP:bP:saEu complex). As described herein, the TRFD assay is performed using biotinylated GH (bGH) as bLigand. Biotinylated H5-mutant peptides bP#447 (SEQ ID NO:11) and bP#418 (SEQ ID NO:12) are also used as bLigand (see below). The TRFD assay described herein faithfully reports the competition of ligand binding to the active site of rGHR. To perform the TRFD assays, soluble rGHBP is attached to the surface of microtiter wells, then incubated with bP. Unbound bP is than washed away and (sa)Eu is added to complex with receptor bound bP. The rGHBP:bP bound (sa)Eu is then converted into its highly fluorescent state and detected by TRFD.
Wells were coated with rGHBP(100 ng/well) overnight as described. ED50 and IC50 were calculated from analysis of specific bLigand binding to rGHBP. Competitors were added 1 hr prior to addition of bLigand as described.
rGHBP (50–200 μg/ml in 50 mM NaHCO3) was coated onto low-fluorescence MaxiSorp (Nunc) plates (100 μl/well) overnight at 4° C. The plates were blocked with PBS containing 2% non-fat milk and 0.05% BSA for 2 hr at room temperature, followed by three PBS washes. […]
The plates were then washed five times with Tris-buffered saline (pH 7.5) containing 0.1% Tween-20 (TTBS). […] Fluorescence of each sample well was measured at 615 nm using a DELFIA 1234 fluorometer (EG&G Wallac). […]

rGHBP [2] = target: T1, rGHBP; assay: BIAcore affinity measurements of bPeptide binding to rGHBP
Experimental: GHBP was immobilized onto one flow-cell of a CM-5 sensor chip (Biosensor) using amine coupling chemistry and the manufacturer's recommended protocol. An unrelated IgG was immobilized in the same manner to another flow cell of the same chip as a control surface. Increasing concentrations of synthetic peptide were injected over both surfaces, and the binding responses were allowed to come to equilibrium. After subtraction of background binding from the control surface, the results were used to derive an equilibrium dissociation constant using Scatchard analysis.
The rat GHBP (100 μg/ml) was immobilized onto a CM-5 sensor chip using amino coupling chemistry and the manufacturer's recommended protocol. The final surface density was 4000 RU. A monoclonal antibody was immobilized onto another flow cell as a control surface. Peptides (50 μg/ml) were injected at a flow rate of 5 μl/min. Background binding to the control surface was subtracted prior to further analysis.

Molecule: CC(C)C[C@@H]1NC(=O)[C@H](CCCNC(=N)N)NC(=O)[C@H](CCC(N)=O)NC(=O)[C@@H](NC(=O)[C@H](CC(C)C)NC(=O)[C@H](CC(=O)O)NC(=O)[C@H](CCCCN)NC(=O)[C@H](Cc2ccc(O)cc2)NC(=O)[C@@H](N)CC(=O)O)CSSC[C@@H](C(=O)N[C@@H](C)C(=O)N[C@@H](CCCCN)C(=O)N[C@@H](CCCCN)C(=O)O)NC(=O)[C@H](Cc2c[nH]c3ccccc23)NC(=O)CNC(=O)[C@H](CO)NC(=O)[C@H](CC(C)C)NC(=O)[C@H](Cc2c[nH]c3ccccc23)NC(=O)CNC(=O)[C@@H]2CCCN2C(=O)[C@H](Cc2c[nH]c3ccccc23)NC(=O)CNC(=O)[C@H](C(C)C)NC(=O)CNC1=O [#447]
- EC50 (rGHBP [1]; wells coated with rGHBP 100 ng/well, read-out: ED50 (half-maximum specific binding)): 600 nM

Molecule: CC(C)C[C@@H]1NC(=O)[C@H](CCCNC(=N)N)NC(=O)[C@H](CCC(N)=O)NC(=O)[C@@H](NC(=O)[C@H](CC(C)C)NC(=O)[C@H](CC(=O)O)NC(=O)[C@H](CCCCN)NC(=O)[C@H](Cc2ccc(O)cc2)NC(=O)[C@@H](N)CC(=O)O)CSSC[C@@H](C(=O)N[C@@H](C)C(=O)N[C@@H](CCCCN)C(=O)N[C@@H](CCCCN)C(=O)O)NC(=O)[C@H](Cc2c[nH]c3ccccc23)NC(=O)CNC(=O)[C@H](C)NC(=O)[C@H](CC(C)C)NC(=O)[C@H](Cc2c[nH]c3ccccc23)NC(=O)CNC(=O)[C@@H]2CCCN2C(=O)[C@H](Cc2c[nH]c3ccccc23)NC(=O)[C@H]([C@@H](C)O)NC(=O)[C@H](C(C)C)NC(=O)CNC1=O [#443] (H-DYKDLCQRLGVTWPGWLAGWCAKK-OH; disulfide 6-21; N-terminus and C-terminus assumed)
- Kd (rGHBP [2]; first apparent KD, read-out: aPPKD 1 (appKD)): 600 nM
- Kd (rGHBP [2]; second apparent KD, read-out: aPPKD 2 (appKD)): > 10000 nM

B1: GH: non-biotinylated growth hormone, the cognate ligand of GHBP (protein, UniProt P01244 27-216, looked up)
Somatotropin: FPAMPLSSLFANAVLRAQHLHQLAADTYKEFERAYIPEGQRYSIQNAQAAFCFSETIPAPTGKEEAQQRTDMELLRFSLLLIQSWLGPVQFLSRIFTNSLMFGTSDRVYEKLKDLEEGIQALMQELEDGSPRIGQILKQTYDKFDANMRSDDALLKNYGLLSCFKKDLHKAETYLRVMKCRRFAESSCAF
- IC50 (rGHBP [1]; competition of bGH (2 nM) binding, competitor added 1 hr before bLigand): 5 to 6 nM
